{"source": "patent US7384739", "experiment_in_all_cases": "activity assay", "key": {"[1]": {"system": "KOD DNA polymerase + KOD-PCNA (Thermococcus kodakaraensis KOD1)", "conditions": "primer elongation with 30-fold molar PCNA over polymerase; 75 C, 2 mM MgCl2; about 3x rate without PCNA; purified recombinant protein"}, "[2]": {"system": "KOD DNA polymerase + KOD-PCNA + KOD-RFC complex (mRFCS/RFCL) (Thermococcus kodakaraensis KOD1)", "conditions": "primer elongation with PCNA and RFC; 0.5-2 kb signal diminished vs PCNA only; purified recombinant protein"}, "[3]": {"biological_target": "T1, KOD DNA polymerase (Thermococcus kodakaraensis KOD1) (UniProt P56689)", "T1 sequence": "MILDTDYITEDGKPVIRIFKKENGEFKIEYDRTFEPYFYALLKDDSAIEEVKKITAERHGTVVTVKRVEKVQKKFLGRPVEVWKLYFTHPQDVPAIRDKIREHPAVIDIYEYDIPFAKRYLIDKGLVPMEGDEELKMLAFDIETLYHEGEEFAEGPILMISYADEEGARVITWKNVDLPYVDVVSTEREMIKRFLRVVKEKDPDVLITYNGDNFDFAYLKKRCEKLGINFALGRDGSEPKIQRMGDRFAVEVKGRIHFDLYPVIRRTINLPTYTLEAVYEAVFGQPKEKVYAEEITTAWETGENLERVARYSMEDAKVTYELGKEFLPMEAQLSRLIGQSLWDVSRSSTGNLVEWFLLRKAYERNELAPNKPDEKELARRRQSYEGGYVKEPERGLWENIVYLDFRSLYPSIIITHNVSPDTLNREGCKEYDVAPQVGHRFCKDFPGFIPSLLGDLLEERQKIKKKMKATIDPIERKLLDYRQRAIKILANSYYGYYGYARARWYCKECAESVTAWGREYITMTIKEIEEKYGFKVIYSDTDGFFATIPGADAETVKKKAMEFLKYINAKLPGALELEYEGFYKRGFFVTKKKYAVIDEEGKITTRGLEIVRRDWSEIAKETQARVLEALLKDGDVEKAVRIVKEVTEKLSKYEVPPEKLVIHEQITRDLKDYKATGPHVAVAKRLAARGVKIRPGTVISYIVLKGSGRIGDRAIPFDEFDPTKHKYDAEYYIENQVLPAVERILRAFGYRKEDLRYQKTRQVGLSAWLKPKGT", "conditions": "primer elongation, alkaline agarose; 150 fmol polymerase, 1.5 pmol DNA; 75 C, 2 mM MgCl2, 10 mM KCl; processivity supposed 5 kb or more; purified recombinant protein"}}, "note": "Construct, isoform or probe ends are uncertain for at least one entry. For part of these data: Protein sequences can lack the tags named with them."}
{"sequence": "CGCCAGGGTTTTCCCAGTCACGAC [M13 P7 primer annealed to M13mp18 circular ssDNA]", "values": [{"measurement": "activity on this sequence", "setting": "[1]", "result": 120, "unit": "bases/s"}, {"measurement": "activity on this sequence (fold synthesized DNA vs polymerase alone)", "setting": "[2]", "result": "> 2"}, {"measurement": "activity on this sequence", "setting": "[3]", "result": 40, "unit": "bases/s"}]}
